{"source": "patent US12286453B2", "about": "“Methods of sequencing using nucleotides with 3′ acetal blocking group” (ILLUMINA CAMBRIDGE LIMITED, priority 2020, dated 2025)", "details": "50 mM glycine in incorporation buffer vs ethanolamine", "data": [{"smiles": "NCC(=O)O", "note": "[glycine]", "values": [{"measurement": "phasing value", "value": "decreased substantially"}, {"measurement": "prephasing value", "value": "slight increase"}]}]}
